Assay: Sensory test of taste of milk test solutions by 11 panelists
Design: key to Taste: different (D) from control; the same (S) as control
Details: for Taste: milk, versus plain milk
Method: AA-2G (reagent grade, commercialized by Hayashibara Biochemical Laboratories, Inc.) was added in commercial milk to give the concentrations described in Table 2 to make the test solutions. Test solutions containing ascorbic acid were prepared in the same way except for using ascorbic acid (guaranteed regent) in place of AA-2G. The commercial milk was used plain as control. Sensory test of the solutions was performed by 11 panelists to evaluate the taste of each test solution added with AA-2G or ascorbic acid as being different (D) from control or as being the same (S) as control. As a result, eight or more of the 11 panelists gave a same evaluation to each test solution.

Question: Which results are given for `O=C1O[C@H]([C@@H](O)CO)C(O)=C1O` [Ascorbic acid, L-ascorbic acid, reference compound]?
Answer: taste of the milk (sensory test) (concentration of 0.5% or less): did not alter the taste of the milk; taste of the milk (sensory test) (concentration of 2.5%): alter the taste of the milk; Taste (additive 0.0001% in sample): S; Taste (additive 0.0005% in sample): S; Taste (additive 0.001% in sample): S; Taste (additive 0.005% in sample): S; Taste (additive 0.01% in sample): S; Taste (additive 0.05% in sample): S; Taste (additive 0.1% in sample): S; Taste (additive 0.5% in sample): S; Taste (additive 2.5% in sample): D

Question: For `O=C1O[C@H]([C@@H](O)CO)C(O)=C1O[C@H]1O[C@H](CO)[C@@H](O)[C@H](O)[C@H]1O` [AA-2G, α-D-glucopyronosyl-(1→2)-L-ascorbic acid], which “taste of the milk (sensory test)” value (concentration of 0.5% or less) is on record?
Answer: did not alter the taste of the milk

Question: And the “taste of the milk (sensory test)” value (concentration of 2.5%)?
Answer: alter the taste of the milk

Question: What about the Taste (additive 0.0001% in sample) of the same compound?
Answer: S

Question: And the Taste (additive 0.0005% in sample)?
Answer: S

Question: And the Taste (additive 0.001% in sample)?
Answer: S

Question: What about the Taste (additive 0.005% in sample) of the same compound?
Answer: S

Question: What about the Taste (additive 0.01% in sample) of the same compound?
Answer: S

Question: What about the Taste (additive 0.05% in sample) of the same compound?
Answer: S

Question: What about the Taste (additive 0.1% in sample) of the same compound?
Answer: S

Question: And the Taste (additive 0.5% in sample)?
Answer: S

Question: And the Taste (additive 2.5% in sample)?
Answer: D
